Reference: patent publication US11944662B2, “Methods and compositions for preventing or treating ophthalmic conditions” (Stealth BioTherapeutics Inc., priority 2009, dated 2024)
Part of at least one peptide drawing is inferred or uncertain, most often the ends. Where a SMILES comes first, the peptide text is derived from it. [ ]: non-standard residue; d: D form. Dmt = Cc1cc(O)cc(C)c1C[C@H](N)C(=O)O

Key:
[1] = test system: GTM3 cells; experiment: Sustained oxidative injury: MMP decline, GTM3 cells; assay type: cell-based, human; settings: then 200 μM H2O2 for 24 h
[2] = test system: Trx2; experiment: Trx2 expression in high glucose-treated HRECs (real-time PCR, Western blot); assay type: cell-based, human
[3] = test system: caspase-3; experiment: Caspase-3 protein expression in high glucose-treated HRECs (Western blot); assay type: cell-based, human; settings: 30 mM glucose, 24 h and 48 h, p<0.05
[4] = test system: GTM and HTM cells; experiment: Prevention of sustained and acute H2O2-induced oxidative stress (summary); assay type: cell-based, human
[5] = test system: inner blood-retinal barrier; experiment: Inner blood-retinal barrier function, Evans blue extravasation, diabetic rats; assay type: in vivo, Sprague-Dawley rat; settings: compared to rats on a HFD not administered SS-20 or SS-31
Excerpt: FIGS. 10A-10B is a series of charts showing the integrity of the blood-retinal barrier of normal rats (NRC), diabetic rats, and diabetic rats treated with SS-20 or SS-31, as analyzed by Evans blue extravasation. (10A) diabetes induced by STZ; (10B) diabetes induced by HFD/STZ.
The effect of the aromatic-cationic peptides on the inner blood-retinal barrier function in the SD rat model was investigated.

[6] = test system: 661W cells; experiment: tBHP-induced 661W cone cell death; assay type: cell-based, mouse; settings: different doses of SS-31
[7] = test system: iHTM cells; experiment: Sustained oxidative injury: ROS production, iHTM cells; assay type: cell-based, human; settings: then 200 μM H2O2 for 24 h
[8] = test system: GTM cells; experiment: Morphology of GTM cells exposed to H2O2 (inverted phase contrast microscopy); assay type: cell-based, human; settings: Group B: SS-31 prior to hydrogen peroxide; concentration-dependent and time-dependent
[9] = test system: choroidal neovascularization; experiment: Choroidal neovascularization (CNV) mouse model, laser burns; assay type: in vivo, C57BL/6 male mice; settings: one week after laser, P<0.05
[10] = test system: GTM and HTM cells; experiment: Cell apoptosis induced by H2O2 (Q2+Q4 quadrant); assay type: cell-based, human; settings: FIG. 38, percentage of cells in Q2+Q4
[11] = test system: lenses of diabetic rats; experiment: Cataract formation in lenses, HFD/STZ diabetic rat model; assay type: in vivo, Sprague-Dawley rat; settings: for Percentage of opacity (%) / Percentage of severe opacity (%) / Turbidity degree ++++ (count) / Turbidity degree +++ (count) / Turbidity degree ++ (count) / Turbidity degree + (count) / Turbidity degree − (count): HFD/STZ rat model; for Turbidity degree ++++ (count): ++++: severely opaque; for Turbidity degree +++ (count): +++: moderately opaque; for Turbidity degree ++ (count): ++: opaque; for Turbidity degree + (count): +: mildly opaque; for Turbidity degree − (count): −: transparent
Description: The example describes the results of such experiments.
(§1) A rat model of diabetes was established by combination of 6-week HFD and low dose of STZ (30 mg/kg) injection or a single high dose of STZ (65 mg/kg) in SD rats. See generally, K. Srinivasan, B. Viswanad, Lydia Asrat, C. L. Kaul and P. Ramarao, Combination of high-fat diet-fed and low-dose streptozotocin-treated rat: A model for type 2 diabetes and pharmacological screening, Pharmacological Research, 52(4): 313-320, 2005. Rats of the same batch fed with normal chow (NRC) were used as a control.

[12] = test system: RPE cells; experiment: Apoptosis of RPE cells induced by tBHP; assay type: cell-based, human; settings: 1 μM SS-31 for 4 h + 250 μM tBHP for 24 h; P<0.05 vs tBHP
[13] = test system: cytochrome c; experiment: Cytochrome c release from mitochondria of HRECs (confocal, Western blot); assay type: cell-based, human; settings: 30 mmol/L glucose, 24 h or 48 h
[14] = test system: GTM cells; experiment: Mitochondrial membrane potential of GTM cells exposed to H2O2 (TMRM, confocal microscopy and flow cytometry); assay type: cell-based, human
[15] = test system: HRECs; experiment: Intracellular ROS in HRECs exposed to 30 mM glucose (dihydroethidium); assay type: cell-based, human; settings: 30 mM glucose + SS-31 100 nM, 24 h and 48 h
[16] = test system: iHTM cells; experiment: Sustained oxidative injury: MMP decline, iHTM cells; assay type: cell-based, human; settings: then 200 μM H2O2 for 24 h
[17] = test system: retinal microvessels; experiment: Retinal microvessel changes in diabetic rats; assay type: in vivo, Sprague-Dawley rat; settings: STZ or HFD/STZ rats
[18] = test system: lens epithelium; experiment: Lens epithelium changes in diabetic rats; assay type: in vivo, Sprague-Dawley rat
[19] = test system: lenses of diabetic rats; experiment: Cataract formation in lenses, STZ diabetic rat model; assay type: in vivo, Sprague-Dawley rat; settings: 10 mg (Table 9: 10 mg/kg s.c.)
Description: as §1

[20] = test system: primary RPE cells; experiment: Viability of primary RPE cells exposed to tBHP (MTT assay); assay type: cell-based, human; settings: preincubated 4 h with different concentrations of SS-31, then tBHP for 6 h
[21] = test system: RPE cells; experiment: MMP of RPE cells exposed to tBHP (JC-1, FACS); assay type: cell-based, human; settings: FIG. 33C; 1 μM SS-31 for 4 h + 500 μM tBHP for 3 h; P<0.01 vs tBHP
[22] = test system: retinal neovascularization; experiment: Oxygen-induced retinopathy (OIR) mouse model; assay type: in vivo
[23] = test system: GTM3 cells; experiment: Sustained oxidative injury: ROS production, GTM3 cells; assay type: cell-based, human; settings: then 200 μM H2O2 for 24 h
[24] = test system: retinal outer nuclear layer (ONL) and cone cells; experiment: Mouse model of retina degeneration; assay type: in vivo
[25] = test system: 661W cells; experiment: Mitochondrial viability of 661W cells exposed to tBHP (JC-1 assay); assay type: cell-based, mouse; settings: 100 nmol/L SS-31, tBHP, vs cells not administered SS-31

Structure (SMILES): Cc1cc(O)cc(C)c1C[C@H](NC(=O)[C@H](N)CCCNC(=N)N)C(=O)N[C@@H](CCCCN)C(=O)N[C@@H](Cc1ccccc1)C(N)=O [SS-31, D-Arg-2′,6′-Dmt-Lys-Phe-NH2] (H-[dR][Dmt]KF-NH2)
- MMP Decline ([1]; SS-31 0.01 μM pre-treated 1 h): −31.33 ± 1.20 %
- MMP Decline ([1]; SS-31 0.1 μM pre-treated 1 h): −29.33%
- MMP Decline ([1]; SS-31 1 μM pre-treated 1 h): −24.33 ± 4.18 %
- protein expression of Trx2 (Western blot) ([2]; high glucose co-treated with SS-31 vs normal glucose group, p<0.05): significantly increased
- expression of Trx2 ([2]; high glucose-treated HRECs, 24 h and 48 h): increased
- caspase-3 protein level [3]: marked decrease
- concentration of SS-31 preventing sustained and acute oxidative stress induced by hydrogen peroxide [4]: > 10^−9 M
- inner blood-retinal barrier function [5]: improved
- tBHP-induced 661W cell death [6]: reduced
- ROS Production ([7]; SS-31 0.01 μM pre-treated 1 h): 114.30%
- ROS Production ([7]; SS-31 0.1 μM pre-treated 1 h): 82.89 ± 3.70 %
- ROS Production ([7]; SS-31 1 μM pre-treated 1 h): 36.91 ± 1.47 %
- hydrogen peroxide-mediated morphological changes (cell loss and rounding) [8]: protects cells
- area of neovascularization ([9]; 1 mg/kg daily intraperitoneal): 0.0068±0.0025
- area of neovascularization ([9]; 9 mg/kg daily intraperitoneal): 0.0067±0
- amount of cell apoptosis induced by H2O2 [10]: reduced
- cataract formation in the lenses of diabetic rats ([11]; HFD/STZ and STZ models (FIGS. 6 and 7, Tables 11 and 12)): prevention or reversal of cataract formation
- Percentage of opacity (%) ([11]; 1 mg (Table 7: 1 mg/kg s.c.)): 67.7%
- Percentage of severe opacity (%) ([11]; 1 mg (Table 7: 1 mg/kg s.c.)): 0%
- Turbidity degree ++++ (count) ([11]; 1 mg (Table 7: 1 mg/kg s.c.)): 0
- Turbidity degree +++ (count) ([11]; 1 mg (Table 7: 1 mg/kg s.c.)): 0
- Turbidity degree ++ (count) ([11]; 1 mg (Table 7: 1 mg/kg s.c.)): 1
- Turbidity degree + (count) ([11]; 1 mg (Table 7: 1 mg/kg s.c.)): 1
- Turbidity degree − (count) ([11]; 1 mg (Table 7: 1 mg/kg s.c.)): 1
- Percentage of opacity (%) ([11]; 3 mg (Table 7: 3 mg/kg s.c.)): 20.0%
- Percentage of severe opacity (%) ([11]; 3 mg (Table 7: 3 mg/kg s.c.)): 20.0%
- Turbidity degree ++++ (count) ([11]; 3 mg (Table 7: 3 mg/kg s.c.)): 1
- Turbidity degree +++ (count) ([11]; 3 mg (Table 7: 3 mg/kg s.c.)): 0
- Turbidity degree ++ (count) ([11]; 3 mg (Table 7: 3 mg/kg s.c.)): 0
- Turbidity degree + (count) ([11]; 3 mg (Table 7: 3 mg/kg s.c.)): 1
- Turbidity degree − (count) ([11]; 3 mg (Table 7: 3 mg/kg s.c.)): 3
- Percentage of opacity (%) ([11]; 10 mg (Table 7: 10 mg/kg s.c.)): 14.3%
- Percentage of severe opacity (%) ([11]; 10 mg (Table 7: 10 mg/kg s.c.)): 0%
- Turbidity degree ++++ (count) ([11]; 10 mg (Table 7: 10 mg/kg s.c.)): 0
- Turbidity degree +++ (count) ([11]; 10 mg (Table 7: 10 mg/kg s.c.)): 0
- Turbidity degree ++ (count) ([11]; 10 mg (Table 7: 10 mg/kg s.c.)): 0
- Turbidity degree + (count) ([11]; 10 mg (Table 7: 10 mg/kg s.c.)): 1
- Turbidity degree − (count) ([11]; 10 mg (Table 7: 10 mg/kg s.c.)): 6
- cell apoptosis (Q2+Q4)% [12]: 8.4±0.8%
- translocation of cytochrome c from mitochondria to cytoplasm [13]: decrease
- mitochondrial membrane potential (TMRM) ([14]; cells exposed to hydrogen peroxide prior to administration of SS-31 (FIGS. 16A-16B)): improves
- decrease in mitochondrial potential (Δψm), confocal ([14]; co-treatment, 200 μM H2O2, GTM): dose-dependently inhibited
- loss of mitochondrial membrane potential, confocal ([14]; co-treatment, 400 μM H2O2, GTM, dose-dependent manner): reduced
- mitochondrial membrane potential (TMRM, confocal microscopy) ([14]; pre-treatment with SS-31, then hydrogen peroxide): dose-dependently improves
- intracellular reactive oxygen species (ROS) [15]: reduced
- MMP Decline ([16]; SS-31 0.01 μM pre-treated 1 h): −58.24 ± 2.62 %
- MMP Decline ([16]; SS-31 0.1 μM pre-treated 1 h): −53.24%
- MMP Decline ([16]; SS-31 1 μM pre-treated 1 h): −44.99 ± 2.19 %
- retinal microvasular changes [17]: reduced
- lens epithelial cellular changes ([18]; HFD/STZ rat model): reduced
- lens epithelial cellular changes ([18]; STZ rat model): reduced
- Percentage of opacity (%) [19]: 60.0%
- Percentage of severe opacity (%) [19]: 20.0%
- Opacity degree ++++ (count) ([19]; ++++: severely opaque): 1
- Opacity degree +++ (count) ([19]; +++: moderately opaque): 0
- Opacity degree ++ (count) ([19]; ++: opaque): 0
- Opacity degree + (count) ([19]; +: mildly opaque): 2
- Opacity degree − (count) ([19]; −: transparent): 2
- cell viability in response to tBHP [20]: enhanced
- R/G (JC-1, MMP) [21]: 2.38±0.18
- avascular area ([22]; OIR mouse model (FIG. 26)): reduced
- compensatory retinal neovascularization ([22]; OIR mouse pups): prevented
- ROS Production ([23]; SS-31 0.01 μM pre-treated 1 h): 133.70%
- ROS Production ([23]; SS-31 0.1 μM pre-treated 1 h): 68.91 ± 8.62 %
- ROS Production ([23]; SS-31 1 μM pre-treated 1 h): 47.40 ± 1.81 %
- cone cell density (PNA-stained retinal flat mounts) ([24]; compared to control mice): greater
- number of rows of cells in the ONL ([24]; compared to untreated mice): greater number of rows of cells
- mitochondrial viability (JC-1 assay) [25]: significantly enhanced
